{"source": "the supplement of paper PMC8551327", "note": "Where “and” joins values, the source holds several entries; their conditions need not be identical. Identical values can stand only once. Counter-ions that a name gives are not always drawn. The list shows a part of the results. No stated cut-off is given here; in the data, active = 1.25 or more and inactive = the rest. Single values are uncertain, as repeats are few or missing."}
{"tested_on": "Kcc2-LUC knock-in mouse primary cortical neurons (Kcc2 promoter reporter)", "test": "Kcc2 promoter-driven luciferase activity relative to vehicle control (fold of vehicle (ratio)); higher = stronger Kcc2 promoter activation (Kcc2 expression enhancer)", "details": "100 nM; 48 h"}
{"smiles": "C/C=C(/C)C(=O)O[C@H]1CC[C@@]2(C)[C@@H]3CC[C@H]4[C@]5(O)C[C@H](O)[C@@]6(O)[C@@H](CN7C[C@@H](C)CC[C@H]7[C@@]6(C)O)[C@]5(O)C[C@]42O[C@]13O", "note": "[Veratrine Hemisulfate]", "Kcc2 promoter-driven luciferase activity": "active: 1.3"}
{"smiles": "C/C=C(\\C)C(=O)O[C@H]1C[C@@H](OC(C)=O)[C@@]2(C(=O)OC)CO[C@H]3[C@@H](O)[C@@](C)([C@]45O[C@@]4(C)[C@H]4C[C@@H]5O[C@@H]5OC=C[C@@]54O)[C@H]4[C@]1(CO[C@]4(O)C(=O)OC)[C@@H]32", "note": "[Azadirachtin]", "Kcc2 promoter-driven luciferase activity": "inactive: 0.74"}
{"smiles": "CC(/C=N/N=C(N)N)=N\\N=C(N)N", "note": "[Methylglyoxal Bis(guanylhydrazone)]", "Kcc2 promoter-driven luciferase activity": "inactive: 1.05"}
{"smiles": "CCN1C[C@]2(COC)CC[C@H](O)[C@@]34C5C[C@@H]6[C@@H](OC)C[C@](O)(C(CC23)C14)C5[C@H]6OC(C)=O", "note": "(stereo not given in full) [Condelphine]", "Kcc2 promoter-driven luciferase activity": "inactive: 1.17"}
{"smiles": "[O-][n+]1ccccc1[S-].[O-][n+]1ccccc1[S-].[Zn+2]", "note": "[ZINC;1-oxidopyridin-1-ium-2-thiolate]", "Kcc2 promoter-driven luciferase activity": "inactive: 1.15"}
{"smiles": "CCC(=O)OC1CCn2c1nc1c2C(=O)C(C)=C(N2CC2)C1=O", "note": "(stereo not given)", "Kcc2 promoter-driven luciferase activity": "inactive: 0.91"}
{"smiles": "CC[C@H]1CN2CCc3cc(OC)c(OC)cc3[C@@H]2C[C@@H]1C[C@H]1NCCc2cc(O)c(OC)cc21", "note": "[Cephaelinehydrochloride]", "Kcc2 promoter-driven luciferase activity": "inactive: 1.05"}
{"smiles": "O=[Se](O)O.[Na+]", "note": "[Selendale]", "Kcc2 promoter-driven luciferase activity": "inactive: 0.81"}
{"smiles": "CN(C)[C@@H]1C(=O)C(C(N)=O)=C(O)[C@@]2(O)C(=O)C3=C(O)c4c(O)ccc(Cl)c4[C@@](C)(O)[C@H]3C[C@@H]12", "note": "[Aureomycin]", "Kcc2 promoter-driven luciferase activity": "inactive: 1"}
{"smiles": "Cc1cc(N(CC(C)Br)CC(C)Br)ccc1N=Nc1ccccc1C(=O)O", "note": "(stereo not given) [Azobenzene, 4-bis(2-bromopropyl)amino-2'-carboxy-2-methyl-]", "Kcc2 promoter-driven luciferase activity": "inactive: 1.24"}
{"smiles": "O=C1N[C@@H]2C(=C[C@H](O)[C@@H](O)[C@H]2O)c2cc3c(cc21)OCO3", "note": "[Lycoricidine]", "Kcc2 promoter-driven luciferase activity": "inactive: 1.12"}
{"smiles": "CC[C@@]12CCCN3CC[C@]4(c5cccc(OC)c5N(C(C)=O)[C@@H]4CC1)[C@H]32", "note": "[Aspidospermine]", "Kcc2 promoter-driven luciferase activity": "inactive: 0.755"}
{"smiles": "CC1C=CC=CCCC=CC=CC=CC=CC(OC2OC(C)C(O)C(N)C2O)CC2OC(O)(CC(O)C(O)CCC(O)CC(O)CC(O)CC(=O)OC(C)C(C)C1O)CC(O)C2C(=O)O", "note": "(stereo not given) [Nystatin]", "Kcc2 promoter-driven luciferase activity": "active: 1.34"}
{"smiles": "CO[C@H]1[C@@H](O)[C@@H](C)O[C@H](O[C@H]2[C@H](Oc3cccc4c(O)c5c(=O)oc6ccc(C)c7c(=O)oc(c34)c5c67)O[C@H](C)[C@H](O)[C@@H]2O)[C@@H]1O", "Kcc2 promoter-driven luciferase activity": "inactive: 1.11"}
{"smiles": "COC1CC(OC2CCC3(C=O)C4CCC5(C)C(C6=CC(=O)OC6)CCC5(O)C4CCC3(O)C2)OC(C)C1OC1OC(COC2OC(CO)C(O)C(O)C2O)C(O)C(O)C1O", "note": "(stereo not given) [K-Strophanthoside]", "Kcc2 promoter-driven luciferase activity": "inactive: 1.11"}
{"smiles": "CC(=O)[O][Sn]([CH2]c1ccccc1)([CH2]c1ccccc1)[CH2]c1ccccc1", "note": "[Tribenzyltin acetate]", "Kcc2 promoter-driven luciferase activity": "inactive: 0.7"}
{"smiles": "CC1=CC23C(COC(=O)C24CO4)C(C(=O)O)=CC3C1C.NCc1ccccc1", "note": "(stereo not given) [AT 116, benzylamine salt]", "Kcc2 promoter-driven luciferase activity": "inactive: 0.95"}
{"smiles": "CC1=C[C@H](O)[C@@H](O)[C@]2(C)[C@H]3[C@@]4(O)OC[C@]35[C@H]([C@@H](C)[C@H]4O)[C@@H](O)C(=O)O[C@@H]5C[C@@H]12", "Kcc2 promoter-driven luciferase activity": "inactive: 0.8"}
{"smiles": "C[Si](C)(CN)CN.[Cl][Pt][Cl]", "note": "[Platinum, (SP-4-2)]", "Kcc2 promoter-driven luciferase activity": "inactive: 1.03"}
{"smiles": "CCOC(=O)[C@H](CC(C)C)NC(=O)[C@H](Cc1ccc(N(CCCl)CCCl)cc1)NC(C)=O", "note": "[Asaley]", "Kcc2 promoter-driven luciferase activity": "inactive: 0.77"}
{"smiles": "[Cl][Hg][c]1ccc2ccccc2c1", "note": "[Chloro(naphthalen-2-yl)mercury]", "Kcc2 promoter-driven luciferase activity": "inactive: 1.08"}
{"smiles": "CO[C@H]1CC=C2CCN3CCC4=C(CC(=O)OC4)[C@]23C1", "note": "[Dihydro-beta-erythroidine]", "Kcc2 promoter-driven luciferase activity": "inactive: 0.61"}
{"smiles": "C=C1C(=O)O[C@@H]2C[C@@H](C)[C@@H]3C=CC(=O)[C@@]3(C)[C@@H](O)[C@H]12", "Kcc2 promoter-driven luciferase activity": "active: 1.44"}
{"smiles": "COc1ccc(C2C=C(c3ccc4c(c3)OCO4)Oc3c2c(=O)oc2ccccc32)cc1OC", "note": "(stereo not given)", "Kcc2 promoter-driven luciferase activity": "inactive: 0.8"}
{"smiles": "COC(=O)[C@@]12OC[C@]34[C@H]([C@@H](O)[C@@H]1O)[C@@]1(C)CC(=O)C(O)=C(C)[C@@H]1C[C@H]3OC(=O)[C@H](OC(=O)/C=C(\\C)C(C)C)[C@@H]24", "Kcc2 promoter-driven luciferase activity": "inactive: 0.86"}
{"smiles": "CCOC(=O)NC1=C(N2CC2)C(=O)C(NC(=O)OCC)=C(N2CC2)C1=O", "note": "[Diaziquone]", "Kcc2 promoter-driven luciferase activity": "inactive: 0.88"}
{"smiles": "CC1Oc2cc3c(-c4c(O)cc(O)c5c(O)c6c(cc45)OC(C)C(C)C6=O)c(O)cc(O)c3c(O)c2C(=O)C1C", "note": "(stereo not given) [Chaetochromin]", "Kcc2 promoter-driven luciferase activity": "active: 1.35"}
{"smiles": "CC1CCC2C(C)C3C(CC4C5CC=C6CC(OC7OC(CO)C(O)C(OC8OC(CO)C(O)C(O)C8O)C7OC7OC(C)C(O)C(O)C7O)CCC6(C)C5CCC43C)N2C1", "note": "(stereo not given)", "Kcc2 promoter-driven luciferase activity": "active: 1.37"}
{"smiles": "O=P1(N(CCCl)CCCl)NCCCO1", "note": "(stereo not given) [Cyclophosphamide]", "Kcc2 promoter-driven luciferase activity": "inactive: 1.08"}
{"smiles": "COc1cc([C@@H]2c3cc4c(cc3[C@H](O)[C@H]3COC(=O)[C@H]23)OCO4)cc(OC)c1OC", "note": "[Podofilox]", "Kcc2 promoter-driven luciferase activity": "inactive: 0.36"}
{"smiles": "CC[C@H]1CN2CCc3cc(OC)c(OC)cc3[C@@H]2C[C@@H]1C[C@H]1NCCc2c1[nH]c1ccc(O)cc21", "note": "[Tubulosine]", "Kcc2 promoter-driven luciferase activity": "inactive: 0.0957"}
{"smiles": "C1CCNCC1.S=C(S)N1CCCCC1", "note": "[Piperidine pentamethylenedithiocarbamate]", "Kcc2 promoter-driven luciferase activity": "active: 1.47"}
{"smiles": "C1CN1c1nc(N2CC2)nc(N2CC2)n1", "note": "[Triethylenemelamine]", "Kcc2 promoter-driven luciferase activity": "inactive: 0.79"}
{"smiles": "C=C1C(=O)O[C@@H]2C[C@@H](C)[C@@H]3C=CC(=O)[C@@]3(C)[C@@H](O)[C@H]12", "note": "[Helenalin]", "Kcc2 promoter-driven luciferase activity": "inactive: 1.13"}
{"smiles": "CO[C@@H](/C(C)=C/C=C/C(C)=C/c1coc(C)n1)[C@@H](C)[C@@H]1C[C@H](O)[C@@]2(C)O[C@@H]2/C=C/[C@@H](C)[C@H]2C[C@H](CC(=O)O2)C[C@@H]2O[C@H]2C(=O)O1", "note": "[Rhizoxin]", "Kcc2 promoter-driven luciferase activity": "inactive: 0.54"}
{"smiles": "S=C=NCc1ccccc1", "note": "[Benzyl Isothiocyanate]", "Kcc2 promoter-driven luciferase activity": "active: 1.42"}
{"smiles": "O=C1C=C2C=CC3CC2(O1)C1CCCCN31", "note": "(stereo not given) [Virosecurinine]", "Kcc2 promoter-driven luciferase activity": "inactive: 0.6 and inactive: 1.19"}
{"smiles": "COc1ccc(O)c2c(=O)c3c(OC)cc4c(c3oc12)[C@@H]1C=CO[C@@H]1O4", "note": "[5-Methoxysterigmatocystin]", "Kcc2 promoter-driven luciferase activity": "inactive: 0.88"}
{"smiles": "Oc1cccc2cccnc12", "note": "[Oxyquinoline]", "Kcc2 promoter-driven luciferase activity": "active: 1.25"}
{"smiles": "CC1OC(O[C@@H]2C=C3CC[C@@H]4[C@H](CC[C@]5(C)[C@@H](c6ccc(=O)oc6)CC[C@]45O)[C@@]3(C)CC2)C(O)C(OC2OC(CO)C(O)C(O)C2O)C1O", "note": "(stereo not given in full)", "Kcc2 promoter-driven luciferase activity": "inactive: 1.18"}
